Test results as given in paper PMC10726135.
No constants are given. Whether binding was seen depends on the method and setting. Binding seen in cells or lysates may run through a third protein. Here binding means that the protein was enriched with, or labelled near, the bait; the list need not be complete. For part of these data: A no says only that the protein was not detected with the bait. Each block holds one molecule with its values, some of them ahead of it.

Amino acid sequences for entries named in this document (tags omitted).
UniProt Q9WTL8: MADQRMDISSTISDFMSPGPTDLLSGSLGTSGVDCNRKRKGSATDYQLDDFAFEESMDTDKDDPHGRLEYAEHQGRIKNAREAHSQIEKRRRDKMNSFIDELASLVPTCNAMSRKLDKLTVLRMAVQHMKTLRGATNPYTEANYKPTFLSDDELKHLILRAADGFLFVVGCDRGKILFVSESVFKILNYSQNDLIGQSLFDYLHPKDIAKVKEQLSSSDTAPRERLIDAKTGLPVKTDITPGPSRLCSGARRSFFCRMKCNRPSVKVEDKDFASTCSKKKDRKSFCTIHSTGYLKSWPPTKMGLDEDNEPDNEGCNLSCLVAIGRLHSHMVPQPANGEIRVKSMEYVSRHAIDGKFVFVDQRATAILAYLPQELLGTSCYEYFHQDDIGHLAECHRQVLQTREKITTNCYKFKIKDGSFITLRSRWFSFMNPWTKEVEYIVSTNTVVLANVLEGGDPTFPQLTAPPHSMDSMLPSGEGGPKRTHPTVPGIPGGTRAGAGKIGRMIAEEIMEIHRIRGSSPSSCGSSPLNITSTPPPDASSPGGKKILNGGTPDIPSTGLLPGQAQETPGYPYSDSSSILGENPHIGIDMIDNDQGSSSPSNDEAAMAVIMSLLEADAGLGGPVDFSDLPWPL
UniProt P06537: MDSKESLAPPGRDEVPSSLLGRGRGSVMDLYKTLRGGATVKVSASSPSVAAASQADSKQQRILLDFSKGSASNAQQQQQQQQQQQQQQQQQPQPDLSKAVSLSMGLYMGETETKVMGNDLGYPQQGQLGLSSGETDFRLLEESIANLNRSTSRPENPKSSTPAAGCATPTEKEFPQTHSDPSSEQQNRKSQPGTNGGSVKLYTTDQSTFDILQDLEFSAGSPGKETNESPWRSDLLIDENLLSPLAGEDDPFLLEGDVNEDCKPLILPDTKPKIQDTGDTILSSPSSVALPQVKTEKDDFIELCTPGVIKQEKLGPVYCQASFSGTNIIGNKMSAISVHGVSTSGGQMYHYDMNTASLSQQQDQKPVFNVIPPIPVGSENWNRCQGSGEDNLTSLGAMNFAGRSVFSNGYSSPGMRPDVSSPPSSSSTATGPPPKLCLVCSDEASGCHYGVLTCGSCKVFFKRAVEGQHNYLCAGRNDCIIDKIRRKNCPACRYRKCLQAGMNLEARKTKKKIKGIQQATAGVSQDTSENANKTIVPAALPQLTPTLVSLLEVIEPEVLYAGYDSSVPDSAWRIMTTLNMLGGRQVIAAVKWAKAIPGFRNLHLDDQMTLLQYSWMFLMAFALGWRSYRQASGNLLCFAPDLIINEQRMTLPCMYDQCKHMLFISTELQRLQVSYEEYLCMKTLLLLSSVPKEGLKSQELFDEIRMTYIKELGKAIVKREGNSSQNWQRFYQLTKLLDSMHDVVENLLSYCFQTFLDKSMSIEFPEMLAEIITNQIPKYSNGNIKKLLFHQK
UniProt P22361: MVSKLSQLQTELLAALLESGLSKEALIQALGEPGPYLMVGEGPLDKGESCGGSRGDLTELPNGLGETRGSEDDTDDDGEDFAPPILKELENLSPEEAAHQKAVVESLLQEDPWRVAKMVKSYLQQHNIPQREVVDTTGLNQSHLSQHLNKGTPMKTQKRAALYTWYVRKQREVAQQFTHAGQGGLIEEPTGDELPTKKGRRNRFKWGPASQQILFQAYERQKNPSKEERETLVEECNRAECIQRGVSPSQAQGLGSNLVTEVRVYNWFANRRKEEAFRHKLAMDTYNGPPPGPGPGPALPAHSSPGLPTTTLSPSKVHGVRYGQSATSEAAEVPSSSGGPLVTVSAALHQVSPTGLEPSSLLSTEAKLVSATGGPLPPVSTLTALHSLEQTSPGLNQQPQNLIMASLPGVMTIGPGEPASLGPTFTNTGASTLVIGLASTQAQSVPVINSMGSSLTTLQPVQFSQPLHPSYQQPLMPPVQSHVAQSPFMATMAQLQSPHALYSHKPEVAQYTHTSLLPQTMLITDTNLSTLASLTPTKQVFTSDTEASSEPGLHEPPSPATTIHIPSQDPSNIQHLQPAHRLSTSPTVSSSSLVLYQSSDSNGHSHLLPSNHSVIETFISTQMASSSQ
UniProt O35185: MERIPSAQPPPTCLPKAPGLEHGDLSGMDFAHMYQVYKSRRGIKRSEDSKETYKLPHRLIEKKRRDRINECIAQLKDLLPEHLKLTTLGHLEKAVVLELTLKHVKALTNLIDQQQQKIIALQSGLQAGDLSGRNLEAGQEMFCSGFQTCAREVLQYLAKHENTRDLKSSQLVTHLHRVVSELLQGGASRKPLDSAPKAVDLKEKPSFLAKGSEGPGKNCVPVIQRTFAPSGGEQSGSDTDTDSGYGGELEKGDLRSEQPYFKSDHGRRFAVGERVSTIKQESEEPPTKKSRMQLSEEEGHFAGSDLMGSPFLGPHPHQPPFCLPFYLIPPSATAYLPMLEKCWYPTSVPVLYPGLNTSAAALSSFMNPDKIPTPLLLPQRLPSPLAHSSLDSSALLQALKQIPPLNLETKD
UniProt Q60644: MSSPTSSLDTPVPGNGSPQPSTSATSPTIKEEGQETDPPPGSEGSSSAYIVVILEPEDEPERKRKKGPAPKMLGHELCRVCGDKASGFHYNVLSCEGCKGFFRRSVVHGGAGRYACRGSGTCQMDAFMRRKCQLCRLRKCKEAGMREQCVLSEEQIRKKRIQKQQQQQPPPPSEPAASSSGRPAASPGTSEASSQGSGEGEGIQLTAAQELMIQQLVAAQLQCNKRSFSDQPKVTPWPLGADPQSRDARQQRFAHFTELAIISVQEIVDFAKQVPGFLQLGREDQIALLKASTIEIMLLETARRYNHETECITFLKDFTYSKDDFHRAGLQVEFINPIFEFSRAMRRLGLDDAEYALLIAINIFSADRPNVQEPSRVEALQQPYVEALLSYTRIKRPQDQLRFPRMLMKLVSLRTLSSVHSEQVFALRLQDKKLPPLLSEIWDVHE

What was measured:
[1] = biological target: T1, P1-HNF4α (Hepatocyte Nuclear Factor 4 alpha from the P1 promoter, exon 1A), HNF4α in WT livers (mouse (endogenous in liver)) (UniProt P49698); assay: affinity purification with mass spectrometry; RIME: livers of WT and α7HMZ male mice (n=3) sacrificed at 20:30 (ZT13.5), crosslinked, IP'd with the P1/P2 HNF4α antibody, MudPIT; proteins at least 8-fold above IgG background; 8-fold difference between WT and α7HMZ taken as unique
T1 sequence: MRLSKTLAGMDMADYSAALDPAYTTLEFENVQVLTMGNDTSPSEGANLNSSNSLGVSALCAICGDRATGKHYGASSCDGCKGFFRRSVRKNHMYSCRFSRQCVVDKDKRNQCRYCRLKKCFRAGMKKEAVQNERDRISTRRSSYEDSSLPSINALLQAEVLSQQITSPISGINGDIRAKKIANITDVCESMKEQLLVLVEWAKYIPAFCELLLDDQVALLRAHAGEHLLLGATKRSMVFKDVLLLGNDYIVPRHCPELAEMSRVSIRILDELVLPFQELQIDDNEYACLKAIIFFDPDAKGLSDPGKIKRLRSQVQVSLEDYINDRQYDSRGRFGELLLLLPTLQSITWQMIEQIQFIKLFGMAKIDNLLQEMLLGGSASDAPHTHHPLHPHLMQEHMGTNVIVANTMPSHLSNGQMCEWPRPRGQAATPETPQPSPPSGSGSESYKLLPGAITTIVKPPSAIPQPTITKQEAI

[2] = biological target: T1, P1-HNF4α (Hepatocyte Nuclear Factor 4 alpha from the P1 promoter, exon 1A), HNF4α in WT livers (mouse (endogenous in liver)); assay: affinity purification with mass spectrometry; RIME: livers of WT and α7HMZ male mice (n=3) sacrificed at 10:30 (ZT3.5), crosslinked, IP'd with the P1/P2 HNF4α antibody, MudPIT; proteins at least 8-fold above IgG background; 8-fold difference between WT and α7HMZ taken as unique
[3] = biological target: T1, P1-HNF4α (Hepatocyte Nuclear Factor 4 alpha from the P1 promoter, exon 1A), HNF4α in WT livers (mouse (endogenous in liver)); assay: affinity purification with mass spectrometry; RIME as in a1 and a2; the text does not tell at which time point (10:30 or 20:30) these pairs were found
[4] = biological target: P2-HNF4α (Hepatocyte Nuclear Factor 4 alpha from exon 1D), HNF4α in α7HMZ livers (mouse (endogenous in liver)); assay: affinity purification with mass spectrometry; RIME: livers of WT and α7HMZ male mice (n=3) sacrificed at 10:30 (ZT3.5), crosslinked, IP'd with the P1/P2 HNF4α antibody, MudPIT; proteins at least 8-fold above IgG background; 8-fold difference between WT and α7HMZ taken as unique
[5] = biological target: T1, P1-HNF4α (Hepatocyte Nuclear Factor 4 alpha from the P1 promoter, exon 1A), HNF4α in WT livers (mouse (endogenous in liver)); assay: as above; remark: listed apart in the source

Molecule: ARNTL (BMAL1) (from UniProt Q9WTL8 1-632)
binding [1]: no binding | binding [2]: no binding

Molecule: NR3C1(GR) (from UniProt P06537 1-792)
binding [3]: binds

Molecule: HNF1A (from UniProt P22361 1-628)
binding [1]: binds | binding [2]: binds

Molecule: BHLHE40 (from UniProt O35185 1-411)
binding [1]: binds | binding [2]: binds

B1: CRY1 (protein, UniProt P97784 1-606)
chain: MGVNAVHWFRKGLRLHDNPALKECIQGADTIRCVYILDPWFAGSSNVGINRWRFLLQCLEDLDANLRKLNSRLFVIRGQPADVFPRLFKEWNITKLSIEYDSEPFGKERDAAIKKLATEAGVEVIVRISHTLYDLDKIIELNGGQPPLTYKRFQTLVSKMEPLEMPADTITSDVIGKCMTPLSDDHDEKYGVPSLEELGFDTDGLSSAVWPGGETEALTRLERHLERKAWVANFERPRMNANSLLASPTGLSPYLRFGCLSCRLFYFKLTDLYKKVKKNSSPPLSLYGQLLWREFFYTAATNNPRFDKMEGNPICVQIPWDKNPEALAKWAEGRTGFPWIDAIMTQLRQEGWIHHLARHAVACFLTRGDLWISWEEGMKVFEELLLDADWSINAGSWMWLSCSSFFQQFFHCYCPVGFGRRTDPNGDYIRRYLPVLRGFPAKYIYDPWNAPEGIQKVAKCLIGVNYPKPMVNHAEASRLNIERMKQIYQQLSRYRGLGLLASVPSNSNGNGGLMGYAPGENVPSCSSSGNGGLMGYAPGENVPSCSGGNCSQGSGILHYAHGDSQQTHSLKQGRSSAGTGLSSGKRPSQEEDAQSVGPKVQRQSSN
binding [4]: binds

B7: CLOCK (protein, UniProt O08785 1-855)
chain: MVFTVSCSKMSSIVDRDDSSIFDGLVEEDDKDKAKRVSRNKSEKKRRDQFNVLIKELGSMLPGNARKMDKSTVLQKSIDFLRKHKETTAQSDASEIRQDWKPTFLSNEEFTQLMLEALDGFFLAIMTDGSIIYVSESVTSLLEHLPSDLVDQSIFNFIPEGEHSEVYKILSTHLLESDSLTPEYLKSKNQLEFCCHMLRGTIDPKEPSTYEYVRFIGNFKSLTSVSTSTHNGFEGTIQRTHRPSYEDRVCFVATVRLATPQFIKEMCTVEEPNEEFTSRHSLEWKFLFLDHRAPPIIGYLPFEVLGTSGYDYYHVDDLENLAKCHEHLMQYGKGKSCYYRFLTKGQQWIWLQTHYYITYHQWNSRPEFIVCTHTVVSYAEVRAERRRELGIEESLPETAADKSQDSGSDNRINTVSLKEALERFDHSPTPSASSRSSRKSSHTAVSDPSSTPTKIPTDTSTPPRQHLPAHEKMTQRRSSFSSQSINSQSVGPSLTQPAMSQAANLPIPQGMSQFQFSAQLGAMQHLKDQLEQRTRMIEANIHRQQEELRKIQEQLQMVHGQGLQMFLQQSNPGLNFGSVQLSSGNSNIQQLTPVNMQGQVVPANQVQSGHISTGQHMIQQQTLQSTSTQQSQQSVMSGHSQQTSLPSQTPSTLTAPLYNTMVISQPAAGSMVQIPSSMPQNSTQSATVTTFTQDRQIRFSQGQQLVTKLVTAPVACGAVMVPSTMLMGQVVTAYPTFATQQQQAQTLSVTQQQQQQQQQPPQQQQQQQQSSQEQQLPSVQQPAQAQLGQPPQQFLQTSRLLHGNPSTQLILSAAFPLQQSTFPPSHHQQHQPQQQQQLPRHRTDSLTDPSKVQPQ
binding [5]: no binding | binding [4]: binds | binding [1]: no binding

Second part, the molecule after the results:

binding [2]: binds
Molecule: NR1H2 (from UniProt Q60644 1-446)

binding [5]: binds | binding [4]: no binding
B2: NR2C1 (protein, UniProt Q505F1 1-590)
chain: MATIEEIAHQIIDQQMGEIVTEQQTGQKIQIVTALDHSTQGKQFILANHEGSTPGKVFLTTPDAAGVNQLFFTSPDLSAPHLQLLTEKSPDQGPNKVFDLCVVCGDKASGRHYGAITCEGCKGFFKRSIRKNLVYSCRGSKDCVINKHHRNRCQYCRLQRCIAFGMKQDSVQCERKPIEVSREKSSNCAASTEKIYIRKDLRSPLAATPTFVTDSETARSAGLLDSGMFVNIHPSGIKTEPAMLMAPDKAESCQGDLSTLASVVTSLANLGKAKDLSHCGGDMPVVQSLRNGDTSFGAFHHDIQTNGDVSRAFDTLAKALTPGESSACQSPEEGMEGSPHLIAGEPSFVEKEGPLLSESHVAFRLTMPSPMPEYLNVHYIGESASRLLFLSMHWALSIPSFQALGQENSISLVKAYWNELFTLGLAQCWQVMNVATILATFVNCLHSSLQQDKMSPERRKSLMEHIFKLQEFCNSMVKLCIDGHEYAYLKAIVLFSPDHPGLENMELIERFQEKAYVEFQDYITRTYPDDTYRLSRLLLRLPALRLMNATITEELFFKGLIGNVRIDSVIPHILKMEPADYNSQIIGHSL

binding [5]: binds | binding [4]: no binding
B3: NR2C2 (protein, UniProt P49117 1-596)
chain: MTSPSPRIQIISTDSAVASPQRIQIVTDQQTGQKIQIVTAVDASGSSKQQFILTSPDGAGTGKVILASPETSSAKQLIFTTSDNLVPGRIQIVTDSASVERLLGKADVQRPQVVEYCVVCGDKASGRHYGAVSCEGCKGFFKRSVRKNLTYSCRSSQDCIINKHHRNRCQFCRLKKCLEMGMKMESVQSERKPFDVQREKPSNCAASTEKIYIRKDLRSPLIATPTFVADKDGARQTGLLDPGMLVNIQQPLIREDGTVLLAADSKAETSQGALGTLANVVTSLANLSESLNNGDASEMQPEDQSASEITRAFDTLAKALNTTDSASPPSLADGIDASGGGSIHVISRDQSTPIIEVEGPLLSDTHVTFKLTMPSPMPEYLNVHYICESASRLLFLSMHWARSIPAFQALGQDCNTSLVRACWNELFTLGLAQCAQVMSLSTILAAIVNHLQNSIQEDKLSGDRIKQVMEHIWKLQEFCNSMAKLDIDGYEYAYLKAIVLFSPDHPGLTGTSQIEKFQEKAQMELQDYVQKTYSEDTYRLARILVRLPALRLMSSNITEELFFTGLIGNVSIDSIIPYILKMETAEYNGQITGASL

binding [5]: binds | binding [4]: no binding
B4: PPARA (protein, UniProt P23204 1-468)
chain: MVDTESPICPLSPLEADDLESPLSEEFLQEMGNIQEISQSIGEESSGSFGFADYQYLGSCPGSEGSVITDTLSPASSPSSVSCPVIPASTDESPGSALNIECRICGDKASGYHYGVHACEGCKGFFRRTIRLKLVYDKCDRSCKIQKKNRNKCQYCRFHKCLSVGMSHNAIRFGRMPRSEKAKLKAEILTCEHDLKDSETADLKSLGKRIHEAYLKNFNMNKVKARVILAGKTSNNPPFVIHDMETLCMAEKTLVAKMVANGVEDKEAEVRFFHCCQCMSVETVTELTEFAKAIPGFANLDLNDQVTLLKYGVYEAIFTMLSSLMNKDGMLIAYGNGFITREFLKNLRKPFCDIMEPKFDFAMKFNALELDDSDISLFVAAIICCGDRPGLLNIGYIEKLQEGIVHVLKLHLQSNHPDDTFLFPKLLQKMVDLRQLVTEHAQLVQVIKKTESDAALHPLLQEIYRDMY

binding [4]: binds
B5: xenobiotic receptor PXR (NR1I2) (protein, UniProt O54915 1-431)
chain: MRPEESWSRVGLVQCEEADSALEEPINVEEEDGGLQICRVCGDKANGYHFNVMTCEGCKGFFRRAMKRNVRLRCPFRKGTCEITRKTRRQCQACRLRKCLESGMKKEMIMSDAAVEQRRALIKRKKREKIEAPPPGGQGLTEEQQALIQELMDAQMQTFDTTFSHFKDFRLPAVFHSGCELPEFLQASLLEDPATWSQIMKDRVPMKISLQLRGEDGSIWNYQPPSKSDGKEIIPLLPHLADVSTYMFKGVINFAKVISYFRDLPIEDQISLLKGATFEMCILRFNTMFDTETGTWECGRLAYCFEDPNGGFQKLLLDPLMKFHCMLKKLQLHKEEYVLMQAISLFSPDRPGVVQRSVVDQLQERFALTLKAYIECSRPYPAHRFLFLKIMAVLTELRSINAQQTQQLLRIQDSHPFATPLMQELFSSTDG

binding [5]: binds | binding [4]: no binding
B6: NFIL3 (protein, UniProt O08750 1-462)
chain: MQLRKMQTIKKEPAPLDPTSSSDKMLLLNSALAEVAEDLASGEDLLLNEGSMGKNKSSACRRKREFIPDEKKDAMYWEKRRKNNEAAKRSREKRRLNDLVLENKLIALGEENATLKAELLSLKLKFGLISSTAYAQEIQKLSNSTAVYFQDYQTSKAAVSSFVDEHEPAMVAGSCISVIKHSPQSSLSDVSEVSSVEHTQESPAQGGCRSPENKFPVIKQEPVELESFAREAREERGTYSTSIYQSYMGSSFSTYSHSPPLLQVHGSTSNSPRTSEADEGVVGKSSDGEDEQQVPKGPIHSPVELQRVHATVVKVPEVNPSALPHKLRIKAKAMQVKVEALDSEFEGMQKLSSPADAIAKRHFDLEKHGTSGMAHSSLPPFSVQVTNIQDWSLKSEHWHHKELSSKTQSSFKTGVVEVKDGGYKVSEAENLYLKQGIANLSAEVVSLKRFIATQPISASDSR
